Assay results from publication doi:10.1101/2025.11.13.683933.
Results are given in words; binding and its absence hold for the method and conditions named. In cells and extracts the contact can be indirect. Some results given as binding are weak or reduced against the parent protein; the word gives no strength.

Biological target: Yes-associated protein 1 (YAP1) (human (endogenous in AGS and GA0518)), P46937
Experiment: co-IP
Settings: remark: other sources report otherwise

B1: TEAD3, Q99594 1-435 (protein)
chain: MASNSWNASSSPGEAREDGPEGLDKGLDNDAEGVWSPDIEQSFQEALAIYPPCGRRKIILSDEGKMYGRNELIARYIKLRTGKTRTRKQVSSHIQVLARKKVREYQVGIKAMNLDQVSKDKALQSMASMSSAQIVSASVLQNKFSPPSPLPQAVFSTSSRFWSSPPLLGQQPGPSQDIKPFAQPAYPIQPPLPPTLSSYEPLAPLPSAAASVPVWQDRTIASSRLRLLEYSAFMEVQRDPDTYSKHLFVHIGQTNPAFSDPPLEAVDVRQIYDKFPEKKGGLKELYEKGPPNAFFLVKFWADLNSTIQEGPGAFYGVSSQYSSADSMTISVSTKVCSFGKQVVEKVETEYARLENGRFVYRIHRSPMCEYMINFIHKLKHLPEKYMMNSVLENFTILQVVTSRDSQETLLVIAFVFEVSTSEHGAQHHVYKLVKD
binding: binds
